Data as given in patent US20220041691A1, “METHODS FOR DIAGNOSING OR TREATING POST-TRAUMATIC STRESS DISORDER, AND COMPOSITIONS THEREFOR” (Centre for Addiction and Mental Health, priority 2018, published 2022).
No constants are given. Whether binding was seen depends on the method and setting. In cells and extracts the contact can be indirect. Some entries that bind do so weakly or less than the wild type. Where a sequence is shown, tags or fusion partners need not be part of it.

Chains of the proteins cited; added tags and fusions are not shown. Lines headed by an entry give the natural chain unless they say otherwise; changes in a name come on top.
UniProt P06537: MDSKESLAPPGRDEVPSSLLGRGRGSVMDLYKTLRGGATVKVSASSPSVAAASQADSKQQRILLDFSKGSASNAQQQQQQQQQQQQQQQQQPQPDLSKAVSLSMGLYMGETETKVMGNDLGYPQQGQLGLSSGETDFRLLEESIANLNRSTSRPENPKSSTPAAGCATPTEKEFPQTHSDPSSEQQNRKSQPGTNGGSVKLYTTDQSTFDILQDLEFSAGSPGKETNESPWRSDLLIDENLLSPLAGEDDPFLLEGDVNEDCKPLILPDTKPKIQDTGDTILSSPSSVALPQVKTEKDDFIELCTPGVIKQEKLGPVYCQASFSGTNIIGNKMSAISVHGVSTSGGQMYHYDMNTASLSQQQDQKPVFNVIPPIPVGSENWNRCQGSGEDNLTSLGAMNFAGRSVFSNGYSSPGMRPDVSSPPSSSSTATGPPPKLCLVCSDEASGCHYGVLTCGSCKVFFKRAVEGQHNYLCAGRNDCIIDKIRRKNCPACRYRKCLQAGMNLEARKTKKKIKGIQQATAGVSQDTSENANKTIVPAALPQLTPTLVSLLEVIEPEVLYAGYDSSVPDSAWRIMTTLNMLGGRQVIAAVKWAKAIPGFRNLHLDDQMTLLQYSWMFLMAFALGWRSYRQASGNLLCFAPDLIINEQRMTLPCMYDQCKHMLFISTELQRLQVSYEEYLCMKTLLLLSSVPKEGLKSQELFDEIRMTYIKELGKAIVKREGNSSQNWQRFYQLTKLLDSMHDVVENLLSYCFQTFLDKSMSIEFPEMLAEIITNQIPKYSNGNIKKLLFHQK
UniProt P04150: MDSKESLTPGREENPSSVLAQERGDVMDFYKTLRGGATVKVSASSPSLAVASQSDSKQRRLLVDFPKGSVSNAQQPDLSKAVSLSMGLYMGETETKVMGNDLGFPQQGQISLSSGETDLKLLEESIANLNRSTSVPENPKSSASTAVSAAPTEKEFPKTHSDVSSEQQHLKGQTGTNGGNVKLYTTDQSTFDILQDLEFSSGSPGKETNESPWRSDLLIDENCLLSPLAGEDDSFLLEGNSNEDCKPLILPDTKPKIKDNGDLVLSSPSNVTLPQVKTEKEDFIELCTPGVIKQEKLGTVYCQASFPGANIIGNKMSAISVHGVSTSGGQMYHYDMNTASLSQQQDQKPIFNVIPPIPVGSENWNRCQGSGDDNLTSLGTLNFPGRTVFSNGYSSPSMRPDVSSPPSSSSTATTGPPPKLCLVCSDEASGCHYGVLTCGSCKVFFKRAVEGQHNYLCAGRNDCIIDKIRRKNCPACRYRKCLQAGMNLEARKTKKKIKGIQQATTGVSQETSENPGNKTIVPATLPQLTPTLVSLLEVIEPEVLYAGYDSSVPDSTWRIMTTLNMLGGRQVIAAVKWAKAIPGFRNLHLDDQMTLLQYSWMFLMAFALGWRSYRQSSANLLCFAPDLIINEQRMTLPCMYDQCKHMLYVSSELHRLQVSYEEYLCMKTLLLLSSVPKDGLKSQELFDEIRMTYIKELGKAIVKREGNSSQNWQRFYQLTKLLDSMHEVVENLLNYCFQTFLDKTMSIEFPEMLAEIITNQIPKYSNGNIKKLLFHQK

How the values were obtained:
[1] = molecular target: T1, GFP-FKBP51 (Homo sapiens (Human)) (UniProt Q13451); experiment: co-immunoprecipitation of Flag-GR with GFP-FKBP51 in transfected HEK293T cells
T1 sequence: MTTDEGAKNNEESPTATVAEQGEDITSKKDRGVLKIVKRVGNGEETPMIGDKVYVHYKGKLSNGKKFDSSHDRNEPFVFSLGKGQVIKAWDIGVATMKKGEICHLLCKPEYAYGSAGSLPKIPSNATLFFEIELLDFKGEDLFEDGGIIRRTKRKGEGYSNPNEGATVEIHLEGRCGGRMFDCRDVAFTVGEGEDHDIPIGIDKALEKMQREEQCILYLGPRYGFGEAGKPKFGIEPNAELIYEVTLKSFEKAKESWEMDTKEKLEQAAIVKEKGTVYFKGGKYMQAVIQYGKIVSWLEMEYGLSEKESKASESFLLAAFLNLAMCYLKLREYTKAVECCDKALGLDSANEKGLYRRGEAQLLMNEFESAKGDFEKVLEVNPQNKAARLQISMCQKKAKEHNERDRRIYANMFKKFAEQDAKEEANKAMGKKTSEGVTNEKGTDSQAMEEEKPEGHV

[2] = molecular target: glucocorticoid receptor (GR), endogenous, mouse brain / mouse lymphocyte lysate (mouse) (UniProt P06537); experiment: GST pull-down from mouse brain tissue, Western blot

“Flag-tagged GR S211A mutant (non-phosphorylated GR mutant) (from UniProt P04150 1-777) (receptor)” was tested, and the binding [1] was “binds”.

In the case of “Flag-tagged GR S211E mutant (phosphomimetic GR mutant) (from UniProt P04150 1-777) (receptor)”, the binding [1] is reported as “binds”.

With “Flag-tagged GR, wild-type (from UniProt P04150 1-777) (receptor)” the binding [1] was “binds”.

B1: GST-FKBP51_TPR (GST fusion of the tetratricopeptide repeat domain of FKBP51) (other)
chain: EMDTKEKLEQAAIVKEKGTVYFKGGKYMQAVIQYGKIVSWLEMEYGLSEKESKASESFLLAAFLNLAMCYLKLREYTKAVECCDKALGLDSANEKGLYRRGEAQLLMNEFESAKGDFEKVLEVNPQNKAARLQISMCQKKAKEHNERDRRIYANMFKKFAEQDAKEEANKAMGKKTSEGVTNEKGTDSQAMEEEKPEGHV
notes: also called GST-TPR; FKBP51 TPR domain; not shown: glutathione S-transferase (GST) tag; vector stated only for the GR fragments (pGEX-4T3)
In the case of B1, the binding [2] is reported as “binds”.

With GEAQLLMNEFESAKGDFEKVLEVNPQNKAARLQISMCQKKAKEHNERDRR (peptide, not shown: a dimerising Fc or GST) [GST-TPR3] the binding [2] was “binds”.
